Results reported in the supplement of paper PMC10849652.
Some of the results follow.

Amino acid sequences for entries named in this document (tags omitted). A change or cut given only in a name is not applied to a line headed by its entry.
UniProt O15431: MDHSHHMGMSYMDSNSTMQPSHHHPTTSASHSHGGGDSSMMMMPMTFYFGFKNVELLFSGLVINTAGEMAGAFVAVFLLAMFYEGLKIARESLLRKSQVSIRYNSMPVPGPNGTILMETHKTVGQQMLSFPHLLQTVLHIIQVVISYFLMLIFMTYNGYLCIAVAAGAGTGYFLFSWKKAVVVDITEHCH
UniProt Q8IXU6: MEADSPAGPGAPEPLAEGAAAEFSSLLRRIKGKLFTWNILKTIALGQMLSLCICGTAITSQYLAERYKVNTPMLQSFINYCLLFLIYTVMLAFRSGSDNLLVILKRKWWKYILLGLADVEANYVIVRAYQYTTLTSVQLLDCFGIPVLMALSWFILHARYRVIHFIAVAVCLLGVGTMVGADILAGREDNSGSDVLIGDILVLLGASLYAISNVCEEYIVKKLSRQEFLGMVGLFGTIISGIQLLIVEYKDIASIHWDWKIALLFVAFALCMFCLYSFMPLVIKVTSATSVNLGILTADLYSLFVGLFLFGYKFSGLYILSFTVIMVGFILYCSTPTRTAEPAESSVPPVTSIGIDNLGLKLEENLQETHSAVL
UniProt Q96A29: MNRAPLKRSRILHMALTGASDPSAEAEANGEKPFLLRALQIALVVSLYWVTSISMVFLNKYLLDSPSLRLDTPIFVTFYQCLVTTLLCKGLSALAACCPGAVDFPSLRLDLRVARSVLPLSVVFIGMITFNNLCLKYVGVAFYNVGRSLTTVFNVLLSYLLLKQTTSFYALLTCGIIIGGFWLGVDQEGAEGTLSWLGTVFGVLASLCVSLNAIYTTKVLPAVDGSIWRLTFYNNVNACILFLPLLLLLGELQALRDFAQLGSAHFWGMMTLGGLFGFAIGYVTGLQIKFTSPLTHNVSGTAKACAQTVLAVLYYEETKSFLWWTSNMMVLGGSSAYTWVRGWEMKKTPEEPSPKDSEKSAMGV
UniProt P30825: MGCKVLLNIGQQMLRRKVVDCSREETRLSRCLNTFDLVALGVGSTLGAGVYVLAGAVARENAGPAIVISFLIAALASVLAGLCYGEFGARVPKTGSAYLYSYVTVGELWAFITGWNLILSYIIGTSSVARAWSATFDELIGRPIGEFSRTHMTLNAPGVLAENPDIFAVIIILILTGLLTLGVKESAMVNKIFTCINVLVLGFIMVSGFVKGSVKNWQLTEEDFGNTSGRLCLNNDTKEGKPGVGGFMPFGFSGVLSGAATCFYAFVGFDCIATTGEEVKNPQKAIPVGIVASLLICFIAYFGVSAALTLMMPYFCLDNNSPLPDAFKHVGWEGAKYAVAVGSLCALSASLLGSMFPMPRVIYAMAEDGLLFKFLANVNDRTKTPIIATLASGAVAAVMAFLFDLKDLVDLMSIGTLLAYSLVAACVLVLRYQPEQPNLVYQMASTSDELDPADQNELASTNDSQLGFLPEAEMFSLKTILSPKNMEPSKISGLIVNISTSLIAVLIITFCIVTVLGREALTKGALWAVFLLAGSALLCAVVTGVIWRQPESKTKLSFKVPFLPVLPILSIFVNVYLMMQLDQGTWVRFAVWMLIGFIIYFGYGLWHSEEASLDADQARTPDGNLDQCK
UniProt P11166: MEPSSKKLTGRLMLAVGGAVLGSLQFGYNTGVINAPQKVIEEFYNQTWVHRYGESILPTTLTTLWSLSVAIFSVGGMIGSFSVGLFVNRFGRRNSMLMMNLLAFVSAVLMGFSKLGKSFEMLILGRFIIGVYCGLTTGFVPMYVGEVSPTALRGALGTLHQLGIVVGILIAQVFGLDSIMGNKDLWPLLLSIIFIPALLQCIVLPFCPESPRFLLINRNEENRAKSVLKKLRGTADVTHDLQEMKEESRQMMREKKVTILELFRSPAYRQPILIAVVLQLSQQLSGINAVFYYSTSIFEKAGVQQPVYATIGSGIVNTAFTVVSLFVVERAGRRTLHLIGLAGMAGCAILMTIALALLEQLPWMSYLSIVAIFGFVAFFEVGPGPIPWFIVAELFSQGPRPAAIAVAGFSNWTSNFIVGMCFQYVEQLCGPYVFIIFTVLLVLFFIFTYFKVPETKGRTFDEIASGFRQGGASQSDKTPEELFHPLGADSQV
UniProt Q6YBV0: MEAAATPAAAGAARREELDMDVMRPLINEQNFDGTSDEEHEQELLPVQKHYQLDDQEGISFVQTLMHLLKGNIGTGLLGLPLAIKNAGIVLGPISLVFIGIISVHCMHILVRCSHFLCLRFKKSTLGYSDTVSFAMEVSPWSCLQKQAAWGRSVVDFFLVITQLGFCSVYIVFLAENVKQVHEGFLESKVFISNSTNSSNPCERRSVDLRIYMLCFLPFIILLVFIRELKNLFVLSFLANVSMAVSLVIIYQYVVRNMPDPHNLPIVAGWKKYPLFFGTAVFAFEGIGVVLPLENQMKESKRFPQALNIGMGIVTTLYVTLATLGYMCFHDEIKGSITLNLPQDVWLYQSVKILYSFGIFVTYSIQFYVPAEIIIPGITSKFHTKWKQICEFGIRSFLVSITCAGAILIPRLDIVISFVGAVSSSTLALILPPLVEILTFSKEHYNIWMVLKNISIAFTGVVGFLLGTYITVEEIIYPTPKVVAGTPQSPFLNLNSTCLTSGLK
UniProt Q8TB61: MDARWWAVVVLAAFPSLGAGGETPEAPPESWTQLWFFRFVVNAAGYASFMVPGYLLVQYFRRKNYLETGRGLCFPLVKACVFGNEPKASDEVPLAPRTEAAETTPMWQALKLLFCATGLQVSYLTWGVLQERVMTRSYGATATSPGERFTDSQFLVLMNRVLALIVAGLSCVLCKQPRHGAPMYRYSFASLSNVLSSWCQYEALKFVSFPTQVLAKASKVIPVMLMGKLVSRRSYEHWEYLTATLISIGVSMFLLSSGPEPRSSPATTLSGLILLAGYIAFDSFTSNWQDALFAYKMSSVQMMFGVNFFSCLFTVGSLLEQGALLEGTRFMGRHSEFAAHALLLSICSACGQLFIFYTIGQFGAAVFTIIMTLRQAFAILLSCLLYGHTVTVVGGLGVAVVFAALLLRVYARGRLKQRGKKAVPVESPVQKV
UniProt Q9NVC3: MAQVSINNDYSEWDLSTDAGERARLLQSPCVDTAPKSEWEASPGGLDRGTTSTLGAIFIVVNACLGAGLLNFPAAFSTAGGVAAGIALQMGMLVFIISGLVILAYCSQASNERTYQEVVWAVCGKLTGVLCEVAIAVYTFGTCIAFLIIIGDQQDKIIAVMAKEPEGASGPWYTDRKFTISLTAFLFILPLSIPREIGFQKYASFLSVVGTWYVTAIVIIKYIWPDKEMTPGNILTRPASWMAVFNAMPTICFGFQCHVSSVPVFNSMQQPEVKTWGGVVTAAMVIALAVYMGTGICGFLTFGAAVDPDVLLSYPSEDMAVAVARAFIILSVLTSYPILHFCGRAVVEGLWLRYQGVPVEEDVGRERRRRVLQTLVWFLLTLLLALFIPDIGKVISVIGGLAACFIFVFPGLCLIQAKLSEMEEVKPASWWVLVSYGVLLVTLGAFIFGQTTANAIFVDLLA
UniProt Q9NQQ7: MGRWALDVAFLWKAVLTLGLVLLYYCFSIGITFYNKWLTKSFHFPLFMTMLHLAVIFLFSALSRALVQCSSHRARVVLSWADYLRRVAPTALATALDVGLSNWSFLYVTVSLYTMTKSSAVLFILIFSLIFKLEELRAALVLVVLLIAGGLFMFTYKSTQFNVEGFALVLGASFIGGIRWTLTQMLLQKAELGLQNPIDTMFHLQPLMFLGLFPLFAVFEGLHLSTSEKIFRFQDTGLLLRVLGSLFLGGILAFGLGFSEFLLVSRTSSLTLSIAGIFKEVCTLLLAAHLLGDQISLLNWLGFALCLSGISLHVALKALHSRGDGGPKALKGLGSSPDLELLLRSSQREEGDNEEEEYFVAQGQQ
UniProt Q5SVS4: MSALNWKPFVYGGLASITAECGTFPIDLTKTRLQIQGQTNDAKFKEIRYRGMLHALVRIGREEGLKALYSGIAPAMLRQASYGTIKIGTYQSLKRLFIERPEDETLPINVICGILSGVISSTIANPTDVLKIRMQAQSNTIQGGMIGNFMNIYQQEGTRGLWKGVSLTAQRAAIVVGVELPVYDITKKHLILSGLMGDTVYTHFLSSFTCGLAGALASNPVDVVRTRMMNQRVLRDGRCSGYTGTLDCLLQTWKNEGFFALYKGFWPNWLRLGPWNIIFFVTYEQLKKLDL
UniProt Q92581: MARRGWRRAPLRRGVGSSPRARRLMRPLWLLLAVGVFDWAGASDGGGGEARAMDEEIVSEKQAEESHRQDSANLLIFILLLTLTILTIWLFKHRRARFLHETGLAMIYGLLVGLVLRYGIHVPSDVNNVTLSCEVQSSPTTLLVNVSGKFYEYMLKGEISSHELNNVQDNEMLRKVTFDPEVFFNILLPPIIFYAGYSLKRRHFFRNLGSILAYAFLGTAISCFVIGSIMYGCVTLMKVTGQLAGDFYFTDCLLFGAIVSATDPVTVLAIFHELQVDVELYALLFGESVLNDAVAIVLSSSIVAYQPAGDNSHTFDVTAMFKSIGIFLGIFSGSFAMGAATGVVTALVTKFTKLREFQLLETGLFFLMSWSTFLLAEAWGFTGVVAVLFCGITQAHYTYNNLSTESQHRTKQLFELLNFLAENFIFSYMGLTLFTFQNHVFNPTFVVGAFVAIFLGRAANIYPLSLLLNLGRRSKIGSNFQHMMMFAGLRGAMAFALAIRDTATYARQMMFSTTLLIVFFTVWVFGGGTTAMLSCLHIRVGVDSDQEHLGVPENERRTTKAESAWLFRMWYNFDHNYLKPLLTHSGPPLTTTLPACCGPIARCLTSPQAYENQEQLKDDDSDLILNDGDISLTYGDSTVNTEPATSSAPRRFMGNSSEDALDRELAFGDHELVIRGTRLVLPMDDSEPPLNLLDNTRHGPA
UniProt Q96H78: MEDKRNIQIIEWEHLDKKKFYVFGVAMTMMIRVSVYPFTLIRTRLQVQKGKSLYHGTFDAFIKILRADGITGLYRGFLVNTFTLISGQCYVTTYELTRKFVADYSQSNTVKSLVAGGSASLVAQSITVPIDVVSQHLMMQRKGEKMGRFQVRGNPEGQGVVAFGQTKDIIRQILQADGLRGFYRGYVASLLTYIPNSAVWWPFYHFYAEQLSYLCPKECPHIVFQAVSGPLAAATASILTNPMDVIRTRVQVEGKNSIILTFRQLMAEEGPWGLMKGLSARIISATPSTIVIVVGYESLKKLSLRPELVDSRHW
UniProt O75387: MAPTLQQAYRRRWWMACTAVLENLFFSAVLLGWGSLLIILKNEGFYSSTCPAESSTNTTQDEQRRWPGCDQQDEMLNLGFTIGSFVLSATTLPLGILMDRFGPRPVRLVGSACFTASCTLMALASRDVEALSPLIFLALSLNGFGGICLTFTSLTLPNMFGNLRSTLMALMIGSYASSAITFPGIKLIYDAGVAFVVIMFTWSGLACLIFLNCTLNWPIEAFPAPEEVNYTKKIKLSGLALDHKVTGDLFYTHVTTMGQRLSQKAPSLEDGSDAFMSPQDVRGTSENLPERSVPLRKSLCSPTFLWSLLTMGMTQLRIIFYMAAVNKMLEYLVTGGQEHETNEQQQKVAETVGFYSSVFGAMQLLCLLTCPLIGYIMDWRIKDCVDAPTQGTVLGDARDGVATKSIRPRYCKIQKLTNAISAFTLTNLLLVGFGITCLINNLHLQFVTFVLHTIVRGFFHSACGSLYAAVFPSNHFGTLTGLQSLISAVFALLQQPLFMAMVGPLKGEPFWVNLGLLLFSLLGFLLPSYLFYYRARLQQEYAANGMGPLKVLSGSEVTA
UniProt O76082: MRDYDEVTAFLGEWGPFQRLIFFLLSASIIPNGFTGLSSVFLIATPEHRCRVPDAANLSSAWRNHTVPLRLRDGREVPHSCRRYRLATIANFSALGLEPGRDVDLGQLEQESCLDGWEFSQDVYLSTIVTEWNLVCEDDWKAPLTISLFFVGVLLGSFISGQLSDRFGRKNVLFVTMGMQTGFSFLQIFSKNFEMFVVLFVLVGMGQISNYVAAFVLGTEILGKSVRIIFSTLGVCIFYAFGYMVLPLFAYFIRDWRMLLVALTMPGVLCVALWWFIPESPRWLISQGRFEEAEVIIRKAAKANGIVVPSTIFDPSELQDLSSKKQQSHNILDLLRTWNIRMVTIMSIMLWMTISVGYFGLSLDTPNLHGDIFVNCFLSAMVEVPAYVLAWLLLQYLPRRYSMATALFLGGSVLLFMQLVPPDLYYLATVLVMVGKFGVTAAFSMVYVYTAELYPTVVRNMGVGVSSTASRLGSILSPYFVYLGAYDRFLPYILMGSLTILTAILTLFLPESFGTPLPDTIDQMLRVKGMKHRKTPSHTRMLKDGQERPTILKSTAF

Columns and labels:
Test in all cases: log2 fold change, soluble protein after heating vs DMSO (PISA); higher = thermal stabilisation; K562 lysate, 10 uM; active = over 0.2 and 3.5 SD of the protein, either way, in both replicates (recomputed)
ibrutinib = compound: C=CC(=O)N1CCC[C@@H](n2nc(-c3ccc(Oc4ccccc4)cc3)c3c(N)ncnc32)C1 [ibrutinib]
In short: (§1)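 Dounce homogenisation of K562 pellets in PBS pH 7.4 with 1 mM MgCl2 produced a crude extract, used at 1 mg/mL protein. Exposure to 10 μM compound lasted 30 min, and aliquots were then heated for 3 min across 48°C-58°C, pooled and brought to 0.5% NP-40 at 4°C. The supernatant after 21,000xg for 90 min was quantified by TMTpro 16plex LC-MS/MS with channel sums equalised. Duplicate values are given as log-two fold change in thermal stability relative to solvent controls.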

[1] = compound: CC(=O)c1cnc2ccc(-c3cc(Cl)c(O)c(Cl)c3)nc2c1N[C@H]1CC[C@H](CN(C)C)CC1
In short: as §1

ralimetinib = compound: CC(C)(C)Cn1c(N)nc2ccc(-c3[nH]c(C(C)(C)C)nc3-c3ccc(F)cc3)nc21 [ralimetinib]
In short: as §1

[2] = compound: CC(C)(O)CC(=O)NCCn1ccc2ncnc(Nc3ccc(Oc4cccc(C(F)(F)F)c4)c(Cl)c3)c21
In short: as §1

[3] = compound: CC(C)C1=C2N=C(C=C(N2N=C1)NCC3=CC=CC=C3)NCCCCCCN
In short: as §1

[4] = compound: CC1=C(C(CC(=O)N1)C2=CC=C(C=C2)C(F)(F)F)C(=O)NC3=C(C=C4C(=C3)C=NN4)F
In short: as §1

[5] = compound: CC1=C(C2=C(C=C1)C(=O)C3=CC=CC=C3N2CCCN)C
In short: as §1

[6] = compound: CC1=C(C=C(C=C1)NC(=O)C2=CC(=CC=C2)C(C)(C)C#N)NC3=CC4=C(C=C3)N=CN(C4=O)C
In short: as §1

[7] = compound: CC1=C(C=C(C=C1)NC(=O)C2=CC(=CC=C2)N(C)C)NC(=O)C3=CC=C(C=C3)O
In short: as §1

[8] = compound: CC1=CC=C(C=C1)SC2=C3C=C(SC3=CN=C2)C(=O)N
In short: as §1

vemurafenib = compound: CCCS(=O)(=O)Nc1ccc(F)c(C(=O)c2c[nH]c3ncc(-c4ccc(Cl)cc4)cc23)c1F [vemurafenib]
In short: as §1

[9] = compound: CCCS(=O)(=O)Nc1ccc(F)c(C(=O)c2c[nH]c3ncc(Cl)cc23)c1F
In short: as §1

barasertib = compound: CCN(CCCOc1ccc2c(Nc3cc(CC(=O)Nc4cccc(F)c4)[nH]n3)ncnc2c1)CCOP(=O)(O)O [barasertib]
In short: as §1

volasertib = compound: CC[C@@H]1C(=O)N(C)c2cnc(Nc3ccc(C(=O)N[C@H]4CC[C@H](N5CCN(CC6CC6)CC5)CC4)cc3OC)nc2N1C(C)C [volasertib]
In short: as §1

[10] = compound: CCn1c(C(=O)N(C2CC2)C2CC2)cc2c3c(ncn3C)c(Nc3cc(C)n(C)n3)nc21
In short: as §1

[11] = compound: CCn1cc(-c2ccnc3[nH]c(-c4cccc(CN(C)C)c4)cc23)c(-c2ccc(NC(=O)N(C)C)cc2)n1
In short: as §1

[12] = compound: CN1CCC(CNc2ccc3ncc(-c4cccc(OC(F)(F)F)c4)n3n2)CC1
In short: as §1

saracatinib = compound: CN1CCN(CCOc2cc(OC3CCOCC3)c3c(Nc4c(Cl)ccc5c4OCO5)ncnc3c2)CC1 [saracatinib]
In short: as §1

sotrastaurin = compound: CN1CCN(c2nc(C3=C(c4c[nH]c5ccccc45)C(=O)NC3=O)c3ccccc3n2)CC1 [sotrastaurin]
In short: as §1

[13] = compound: CC[C@@H]1C(=O)N(C)c2cnc(Nc3ccc(C(=O)NC4CCN(C)CC4)cc3OC)nc2N1C1CCCC1
In short: as §1

Measured: log2 fold change

SLC31A1 (UniProt O15431)
inactive: ibrutinib -0.007 | [1] -0.086 | ralimetinib 0.016 | [2] -0.214 | [3] -0.048 | [4] -0.028 | [5] 0.121 | [6] 0.023 | [7] 0.015 | [8] -0.064 | vemurafenib 0.094 | [9] -0.001 | barasertib 0.182 | volasertib 0.302 | [10] -0.032 | [11] -0.047 | [12] -0.098 | saracatinib 0.073 | sotrastaurin 0.045

SLC35F2 (UniProt Q8IXU6)
inactive: ibrutinib 0.005 | [1] -0.015 | ralimetinib -0.01 | [2] 0 | [3] -0.063 | [4] 0.033 | [5] 0.077 | [7] -0.032 | [8] 0.03 | vemurafenib 0.015 | [9] 0.008 | barasertib -0.063 | [13] 0.012 | volasertib 0.023 | [10] 0.015 | [11] -0.188 | [12] 0.124 | saracatinib -0.021

SLC35C1 (UniProt Q96A29)
inactive: ibrutinib -0.033 | [1] 0 | ralimetinib -0.01 | [2] 0.288 | [3] -0.172 | [4] -0.031 | [6] -0.06 | [7] 0.235 | [8] 0.061 | vemurafenib -0.019 | [9] 0.006 | barasertib 0.116 | [13] 0.034 | volasertib -0.042 | [10] -0.057 | sotrastaurin 0.044

SLC43A3 (UniProt Q8NBI5)
inactive: ibrutinib 0.007 | [1] -0.454 | ralimetinib 0.032 | [2] 0.026 | [7] 0.09 | [8] -0.235 | [9] -0.239 | barasertib -0.079 | volasertib 0.29 | [10] -0.251

SLC7A1 (UniProt P30825)
inactive: ibrutinib 0.037 | [1] -0.002 | ralimetinib 0.032 | [2] 0.006 | [3] -0.033 | [4] -0.003 | [5] 0.029 | [6] -0.053 | [7] -0.007 | [8] -0.031 | vemurafenib -0.006 | [9] 0.005 | barasertib 0.004 | [13] 0.009 | volasertib 0.038 | [10] 0.052 | [11] 0 | [12] 0.044 | saracatinib 0.022 | sotrastaurin 0.044

Two records picked at random from the list so far, as already listed:
SLC31A1 (UniProt O15431)
inactive: ibrutinib -0.007 | [1] -0.086 | ralimetinib 0.016 | [2] -0.214 | [3] -0.048 | [4] -0.028 | [5] 0.121 | [6] 0.023 | [7] 0.015 | [8] -0.064 | vemurafenib 0.094 | [9] -0.001 | barasertib 0.182 | volasertib 0.302 | [10] -0.032 | [11] -0.047 | [12] -0.098 | saracatinib 0.073 | sotrastaurin 0.045

SLC35C1 (UniProt Q96A29)
inactive: ibrutinib -0.033 | [1] 0 | ralimetinib -0.01 | [2] 0.288 | [3] -0.172 | [4] -0.031 | [6] -0.06 | [7] 0.235 | [8] 0.061 | vemurafenib -0.019 | [9] 0.006 | barasertib 0.116 | [13] 0.034 | volasertib -0.042 | [10] -0.057 | sotrastaurin 0.044

(cont.)

SLC2A1 (UniProt P11166)
inactive: ibrutinib 0.041 | [1] 0.003 | ralimetinib 0.038 | [2] 0.005 | [3] -0.019 | [4] -0.023 | [5] 0.015 | [6] -0.006 | [7] 0.021 | [8] 0.01 | vemurafenib 0.022 | [9] -0.018 | barasertib -0.064 | [13] -0.023 | volasertib 0.024 | [10] -0.025 | [11] 0.045 | [12] 0.055 | saracatinib 0.022 | sotrastaurin 0.007

SLC36A4 (UniProt Q6YBV0)
inactive: ibrutinib 0.109 | [1] -0.088 | ralimetinib 0.101 | [2] -0.115 | [3] -0.115 | [4] -0.044 | [5] -0.067 | [6] 0.097 | [7] 0.049 | [8] 0.058 | [9] -0.092 | barasertib -0.326 | [13] 0.183 | volasertib 0.033 | [10] -0.038 | [11] 0.001 | [12] 0.097 | saracatinib 0.174 | sotrastaurin 0.027

SLC35B2 (UniProt Q8TB61)
inactive: ibrutinib 0.015 | [1] 0.008 | ralimetinib 0.002 | [2] 0.023 | [3] -0.046 | [4] -0.001 | [5] -0.042 | [6] -0.012 | [7] -0.054 | [8] -0.028 | vemurafenib 0.018 | [9] 0.03 | barasertib 0.034 | [13] 0.024 | volasertib 0.018 | [10] 0.036 | [11] -0.011 | [12] 0.006 | saracatinib -0.012 | sotrastaurin -0.03

SLC38A7 (UniProt Q9NVC3)
inactive: ibrutinib 0.041 | [1] -0.158 | [3] 0.085 | [4] 0.055 | [5] 0.052 | [6] 0.091 | [8] 0.057 | vemurafenib 0.05 | [9] 0.022 | barasertib -0.016 | [13] -0.066 | volasertib 0.031 | [11] 0.039 | [12] 0.021 | saracatinib 0 | sotrastaurin -0.156

SLC35C2 isoform 3 (UniProt Q9NQQ7)
inactive: ibrutinib -0.08 | [1] -0.184 | ralimetinib -0.098 | [2] -0.02 | [3] -0.152 | [4] -0.085 | [5] 0.046 | [6] 0.033 | [7] -0.103 | [8] 0.036 | [9] -0.049 | barasertib 0.129 | [13] -0.141 | volasertib 0.075 | [10] 0.012 | [11] 0.028 | [12] 0.244 | saracatinib -0.026 | sotrastaurin 0.024

SLC25A30 (UniProt Q5SVS4)
inactive: ibrutinib 0.037 | [1] -0.013 | ralimetinib -0.019 | [2] -0.113 | [3] 0.017 | [4] 0.13 | [5] -0.249 | [6] -0.033 | [7] 0.008 | [8] 0.037 | vemurafenib -0.054 | [9] -0.017 | barasertib 0.033 | volasertib 0.025 | [10] 0.012 | [11] -0.017 | [12] 0.068 | saracatinib -0.129 | sotrastaurin 0.067

SLC9A6 isoform 2 (UniProt Q92581)
inactive: ibrutinib 0.05 | [1] -0.002 | ralimetinib -0.005 | [2] 0.019 | [3] -0.06 | [5] -0.021 | [6] -0.021 | [7] 0.091 | [8] 0.008 | vemurafenib 0.005 | [9] 0.024 | barasertib 0.125 | [13] 0.102 | volasertib 0.025 | [10] -0.08 | [11] 0.029 | [12] -0.108 | saracatinib 0.017 | sotrastaurin 0.03

SLC45A4 isoform 3 (UniProt Q5BKX6)
inactive: ibrutinib 0.085 | [1] 0.014 | ralimetinib -0.04 | [2] -0.047 | [3] 0.014 | [4] 0.033 | [6] 0.064 | [7] -0.053 | [8] 0.031 | vemurafenib 0.06 | [9] 0.013 | barasertib 0 | [13] -0.265 | volasertib -0.005 | [10] 0.05 | [11] 0.17 | [12] -0.114 | sotrastaurin 0.068

SLC25A44 (UniProt Q96H78)
inactive: ibrutinib -0.006 | [1] 0.002 | ralimetinib 0.065 | [2] -0.322 | [3] -0.031 | [5] -0.017 | [6] 0.038 | [7] -0.118 | [8] 0.002 | vemurafenib 0.014 | [9] 0.015 | barasertib 0.007 | [13] 0.002 | volasertib 0.06 | [10] 0.307 | [11] 0.021 | [12] 0.17 | saracatinib -0.041 | sotrastaurin 0.062

SLC43A1 (UniProt O75387)
inactive: ibrutinib 0.106 | [1] -0.01 | ralimetinib 0.047 | [2] -0.022 | [3] -0.018 | [4] 0.034 | [5] -0.095 | [6] 0.034 | [7] -0.033 | [8] -0.001 | vemurafenib 0.039 | [9] 0.025 | barasertib -0.047 | [13] -0.031 | volasertib 0.006 | [10] 0.002 | [11] -0.008 | [12] -0.008 | saracatinib -0.084 | sotrastaurin 0.016

SLC9A8 isoform 2 (UniProt Q9Y2E8)
inactive: ibrutinib 0.019 | [1] 0.049 | ralimetinib 0.093 | [2] -0.016 | [3] -0.014 | [4] -0.001 | [5] 0.03 | [6] -0.039 | [7] -0.008 | [8] 0.008 | [9] 0.01 | barasertib 0.068 | volasertib -0.023 | [10] 0.012 | [11] -0.025 | [12] 0.046 | saracatinib -0.072 | sotrastaurin 0.07

SLC22A5 isoform 3 (UniProt O76082)
inactive: ibrutinib 0.016 | [1] -0.01 | ralimetinib -0.282 | [2] 0.132 | [3] 0.091 | [5] -0.054 | [6] 0.068 | [7] -0.259 | [8] 0.025 | vemurafenib 0.015 | [9] -0.149 | barasertib -0.064 | volasertib 0.074 | [10] -0.319 | [11] -0.05 | [12] 0.079 | saracatinib 0.134 | sotrastaurin -0.043
